Data source: PubChem BioAssay AID1259424 (University of Nebraska Medical Center, 2018)
Test: 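Rank knockdowns across the genome by resemblance to the KSR1 depletion profile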 (primary screen). System: human HCT116 colon cancer cells. Reagent: siRNA pool against human genes, 50 nM. Detection: 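Six signature mRNAs by branched-DNA multiplex assay, scaled to two housekeeping genes and non-targeting median, log2; matched to mean KSR1 knockdown profile by Pearson correlation and euclidean distance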. Reading the numbers: mean correlation with KSR1 profile and KSR1 correlation: higher = expression change more like KSR1 knockdown; mean distance from KSR1 profile: higher = expression change less like KSR1 knockdown.
The whole screen tested about 14,000 reagents; this is an unselected part. 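Higher correlation or smaller distance means closer resemblance to KSR1 loss; control wells, including KSR1 knockdowns, recur on many plates.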 Reagents against one gene are numbered here. Not all columns of the deposit are shown. No sequences are given here. Not given: the time to read-out.

target gene	pool no.	mean correlation with KSR1 profile	mean distance from KSR1 profile	KSR1 correlation, replicate 1
TLE3	1	0.57	3.56	0.628
BBS10	1	0.362	2.02	0.345
PPP2CB	1	0.216	2.01	0.447
DEFA5	1	-0.0885	2.11	0.301
CHP1	1	0.211	1.76	0.254
NUDT16L1	1	0.927	0.68	0.793
RPA3	1	-0.0493	2.25	0.161
FDX1	1	-0.0654	1.49	-0.0327
ANKRD27	1	0.664	2.35	0.685
CACNA1F	1	-0.0162	1.41	0.0846
PLA2G4C	1	-0.478	2.37	-0.568
CRBN	1	-0.218	1.83	0.0336
POLR2I	1	-0.349	2.64	-0.205
MAP2K1	1	0.431	2.02	0.547
FAM120C	1	-0.141	1.82	-0.0112
GJA5	1	-0.136	2.67	-0.183
PGAP1	1	-0.0854	1.72	-0.0522
CYP2A6	1	0.0849	1.5	0.0673
NR2F1	1	0.384	1.86	0.562
SPOCK3	1	-0.792	2.63	-0.744
PSMB1	1	-0.301	4.17	-0.129
AIFM1	1	0.172	2.89	0.066
ILF2	1	-0.14	1.87	0.106
SCRT1	1	0.412	2.65	0.19
SCRT1	2	0.897	1.18	0.851
PITRM1	1	0.409	1.19	0.343
FIRRM	1	-0.65	3.56	-0.512
TTC13	1	0.412	2.84	0.476
EFTUD2	1	-0.479	2.26	-0.664
SETMAR	1	-0.38	2.19	-0.428
KLRK1	1	-0.382	1.79	-0.183
ALPK1	1	-0.353	2.11	-0.2
CCNP	1	-0.59	2.46	-0.61
NR3C2	1	0.00713	1.65	0.114
THOP1	1	-0.188	4.43	-0.0312
TAAR2	1	0.828	1.35	0.843
KERA	1	-0.519	2.51	-0.587
ATP2B2	1	0.223	3.05	0.286
MUC1	1	-0.214	4.37	0.00722
ATP7A	1	0.243	2.96	0.196
USP45	1	0.586	2.29	0.578
DYNLL1	1	-0.162	1.75	-0.163
RAG2	1	-0.696	2.69	-0.773
HCRTR2	1	0.175	2.67	0.13
DUX3	1	0.716	1.67	-0.164
TAL1	1	0.159	1.52	-0.0985
HCAR1	1	0.0917	2.86	0.262
GRIN2D	1	-0.564	2.49	-0.328
TFF2	1	0.2	2.08	0.318
CTSK	1	-0.273	2.8	-0.338

Limited to “KSR1 correlation, replicate 1”, for 8 of the entries above:
EFTUD2	-0.664
SETMAR	-0.428
KLRK1	-0.183
ALPK1	-0.2
CCNP	-0.61
NR3C2	0.114
THOP1	-0.0312
TAAR2	0.843
